Measured values: US20260274954A1 (published 2026)
Where a chain is given by its changes, count along the chain named. No constants are given. Whether binding was seen depends on the method and setting. Some entries that bind do so weakly or less than the wild type.

Protein sequences, listed by entry. Tags and fused reporters are not part of them. Lines headed by an entry give the natural chain unless they say otherwise; changes in a name come on top. Residues count along the entry.
UniProt Q15116: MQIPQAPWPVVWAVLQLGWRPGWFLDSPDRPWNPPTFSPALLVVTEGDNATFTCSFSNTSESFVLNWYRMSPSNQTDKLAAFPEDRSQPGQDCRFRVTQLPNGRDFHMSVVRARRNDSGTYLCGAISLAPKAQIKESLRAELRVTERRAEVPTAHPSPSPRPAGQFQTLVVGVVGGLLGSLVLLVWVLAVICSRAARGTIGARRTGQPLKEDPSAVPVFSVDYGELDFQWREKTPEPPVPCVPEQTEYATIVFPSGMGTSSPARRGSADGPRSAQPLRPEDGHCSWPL
UniProt Q02242, residues 25-167: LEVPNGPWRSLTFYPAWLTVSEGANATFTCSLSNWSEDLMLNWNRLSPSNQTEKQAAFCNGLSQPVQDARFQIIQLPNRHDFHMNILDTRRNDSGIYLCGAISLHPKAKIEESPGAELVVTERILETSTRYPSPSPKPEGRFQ

B1: 2E5 (antibody, V domains shown)
VH: QVQLVQSGAEVKKPGSSVKVSCKASGFTFTTYYISWVRQAPGQGLEYLGYINMGSGGTNYNEKFKGRVTITADKSTSTAYMELSSLRSEDTAVYYCAIIGYFDYWGQGTMVTVSS
VL: DVVMTQSPLSLPVTLGQPASISCRSSQSLLDSDGGTYLYWFQQRPGQSPRRLIYLVSTLGSGVPDRFSGSGSGTDFTLKISRVEAEDVGVYYCMQLTHWPYTFGQGTKLEIK
B2: 1H6 (antibody, V domains shown)
VH: B1 VH with I99L
VL: B1 VL
B3: 2C2 (antibody, V domains shown)
VH: B1 VH
VL: B1 VL with G35A
B4: 2G4 (antibody, V domains shown)
VH: B1 VH
VL: B1 VL with G35S

What follows are binders tested against human PD-1 protein (construct not stated) (human) (UniProt Q15116) (assay: ELISA, coated PD-1 at 1 ug/ml).

binding, binds:
B1
B2
B3
B4

Each binder was assayed against mouse PD-1 protein (construct not stated) (mouse) (UniProt Q02242) (assay: ELISA, coated PD-1 at 1 ug/ml).

binding, binds:
B1
B2
B3
B4
